{"source": "the supplement of paper PMC8256030", "note": "Several values for one entry are separate records, joined by “and”; a condition that tells them apart may be missing. Equal values may be shown once. The list shows a part of the results. Single values are uncertain here, since repeats match poorly.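 HEK293T cells were given each compound shortly before transfection with a reporter in which red mCherry is followed by the SARS-CoV-2 frameshift element and then GFP in the −1 frame, so GFP appears only after frameshifting.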"}
{"test_system": "SARS-CoV-2 -1 PRF reporter mCherry-FSE-GFP(-1)", "test": "percent effect, decrease of GFP/mCherry ratio (-1 PRF reporter) relative to controls; higher = stronger frameshift inhibition", "settings": "10 µM; 24 h; HEK293T"}
{"smiles": "CN1CCN(CCCCN2C(=O)CN(/N=C/c3ccc(-c4ccc(Cl)cc4)o3)C2=O)CC1", "note": "[azimilide]", "percent effect": "-2.07%"}
{"smiles": "CN(CCOc1ccc(CC2SC(=O)NC2=O)cc1)c1ccccn1", "note": "(stereo not given)", "percent effect": "-3.53%"}
{"smiles": "CCCCCN(CCCCC)C(=O)C(CCC(=O)O)NC(=O)c1ccc(Cl)c(Cl)c1", "note": "(stereo not given) [lorglumide]", "percent effect": "-2.76% and -1.9%"}
{"smiles": "CCOC(=O)COc1ccc2c(=O)cc(-c3ccccc3)oc2c1", "note": "[efloxate]", "percent effect": "2.23%"}
{"smiles": "CCN1CC(CCN2CCOCC2)C(c2ccccc2)(c2ccccc2)C1=O", "note": "(stereo not given) [doxapram]", "percent effect": "-1.7%"}
{"smiles": "CN(Cc1ccc(C(C)(C)C)cc1)Cc1cccc2ccccc12", "note": "[butenafine]", "percent effect": "2.88%"}
{"smiles": "CO[C@@H]1[C@@H](OC(N)=O)[C@@H](O)[C@H](Oc2ccc3c(O)c(NC(=O)c4ccc(O)c(CC=C(C)C)c4)c(=O)oc3c2C)OC1(C)C", "percent effect": "-0.605%"}
{"smiles": "Cc1ncc2c(c1O)COC2c1ccc(Cl)cc1", "note": "(stereo not given) [cicletanine]", "percent effect": "-6.63%"}
{"smiles": "CCCC(=O)N1CCCN(c2nc(N)c3cc(OC)c(OC)cc3n2)CC1", "note": "[bunazosin]", "percent effect": "-21.8%"}
{"smiles": "CCC[S+]([O-])c1ccc2[nH]c(NC(=O)OC)nc2c1", "note": "(stereo not given) [Ricobendazole]", "percent effect": "-1.53%"}
{"smiles": "OC(CCN1CCCCC1)(c1ccccc1)C1CCCCC1", "note": "(stereo not given) [trihexyphenidyl]", "percent effect": "-7.19%"}
{"smiles": "CCOc1ccc(NC(=S)Nc2ccc(OCC)cc2)cc1", "note": "[etocarlide]", "percent effect": "-14.5%"}
{"smiles": "Cc1cc(S(=O)(=O)O)c2c(C)ccc(C(C)C)cc1-2", "note": "[sodium gualenate]", "percent effect": "-1.18%"}
{"smiles": "Oc1ncnc2[nH]ncc12", "percent effect": "-1.4%"}
{"smiles": "CCN(CC)CCNC(=O)c1c(C)[nH]c(/C=C2\\C(=O)Nc3ccc(F)cc32)c1C", "note": "[sunitinib]", "percent effect": "-17.3% and -9.52%"}
{"smiles": "COc1cc(C(=O)OCCCN2CCCN(CCCOC(=O)c3cc(OC)c(OC)c(OC)c3)CC2)cc(OC)c1OC", "note": "[dilazep]", "percent effect": "-4.52%"}
{"smiles": "CN(C)CCC(c1ccc(Br)cc1)c1ccccn1", "note": "(stereo not given) [brompheniramine]", "percent effect": "-5.62%"}
{"smiles": "NC(N)=Nc1nc(CSCC/C(N)=N/S(N)(=O)=O)cs1", "note": "[famotidine]", "percent effect": "-2.91% and -5.01%"}
{"smiles": "O=C(O)CCCc1ccccc1", "note": "[Sodium Phenylbutyrate]", "percent effect": "-0.546%"}
{"smiles": "CC(C)OC(=O)CCC/C=C\\C[C@@H]1[C@@H](CC[C@@H](O)CCc2ccccc2)[C@H](O)C[C@@H]1O", "note": "[latanoprost]", "percent effect": "-12.2%"}
{"smiles": "CCN(CC)CCOC(=O)C1(c2ccccc2)CCCC1", "note": "[caramiphen]", "percent effect": "-2.71%"}
{"smiles": "Cc1ncc([N+](=O)[O-])n1C", "percent effect": "1.44%"}
{"smiles": "O=C(O[C@H]1CN2CCC1CC2)N1CCc2ccccc2[C@@H]1c1ccccc1", "percent effect": "0.804%"}
{"smiles": "Clc1ccc(CSC(Cn2ccnc2)c2ccc(Cl)cc2Cl)cc1", "note": "(stereo not given) [sulconazole]", "percent effect": "-1.11%"}
{"smiles": "Cc1ncc([N+](=O)[O-])n1CC(O)CCl", "note": "(stereo not given) [ornidazole]", "percent effect": "-5.02%"}
{"smiles": "Cc1ccc(-c2cc(C(F)(F)F)nn2-c2ccc(S(N)(=O)=O)cc2)cc1", "note": "[celecoxib]", "percent effect": "-4.17% and -5.17%"}
{"smiles": "OC[C@H]1O[C@@H](n2cnc3c2N=CNC[C@H]3O)C[C@@H]1O", "note": "[pentostatin]", "percent effect": "-1.8%"}
{"smiles": "COc1cc(CNC(=O)CCCC/C=C\\C(C)C)ccc1O", "note": "[zucapsaicin]", "percent effect": "-5.52%"}
{"smiles": "CC(=O)NC(CC(C)C)C(=O)O", "note": "(stereo not given) [acetylleucine]", "percent effect": "0.455%"}
{"smiles": "C[C@@H]1C/C=C/C=C/C=C/C=C/[C@H](O[C@@H]2O[C@H](C)[C@@H](O)[C@H](N)[C@@H]2O)C[C@@H]2O[C@](O)(C[C@@H](O)C[C@H]3O[C@@H]3/C=C/C(=O)O1)C[C@H](O)[C@H]2C(=O)O", "percent effect": "-4.29%"}
{"smiles": "CC(=O)OC/C=C(C)/C=C/C=C(C)/C=C/C1=C(C)CCCC1(C)C", "percent effect": "-3.34%"}
{"smiles": "NC[C@H]1CC[C@H](C(=O)O)CC1", "note": "[Tranexamic acid]", "percent effect": "-1.73%"}
{"smiles": "O=C(O)[C@@H]1C[C@H](CP(=O)(O)O)CCN1", "note": "(racemic) [selfotel]", "percent effect": "-6.45%"}
{"smiles": "O=c1[nH]c(=O)n([C@H]2C[C@H](O)[C@@H](CO)O2)cc1/C=C/Br", "note": "[brivudine]", "percent effect": "-10.5%"}
{"smiles": "O=C(O)CN1C[C@@H](c2cccs2)SC[C@H](N[C@@H](CCc2ccccc2)C(=O)O)C1=O", "note": "[temocaprilat]", "percent effect": "4.12%"}
{"smiles": "COc1ccnc(C[S+]([O-])c2nc3cc(-n4cccc4)ccc3[nH]2)c1C", "note": "(stereo not given) [ilaprazole]", "percent effect": "-3.08%"}
{"smiles": "CCOc1ccc2ccccc2c1C(=O)N[C@@H]1C(=O)N2[C@@H]1SC(C)(C)[C@@H]2C(=O)O", "note": "[Unipen]", "percent effect": "0.193%"}
{"smiles": "CC(C)OC(=O)[C@H](C)N[P@](=O)(OC[C@H]1O[C@@H](n2ccc(=O)[nH]c2=O)[C@](C)(F)[C@@H]1O)Oc1ccccc1", "note": "[Sofosbuvir]", "percent effect": "0.561%"}
{"smiles": "CN1CCC(CN2c3ccccc3Sc3ccccc32)C1", "note": "(stereo not given) [methdilazine]", "percent effect": "-0.159%"}
{"smiles": "CC(C)c1nc(N(C)S(C)(=O)=O)nc(-c2ccc(F)cc2)c1/C=C/[C@@H](O)C[C@@H](O)CC(=O)O", "note": "[rosuvastatin]", "percent effect": "-5.15%"}
